Measurements from “University of Dundee, Small-Polar-MMV Screening Library” (2021), ChEMBL document CHEMBL3988442.

Protein sequences, listed by entry. Tags and fused reporters are not part of them. Residues count along the entry.
UniProt A4I591, 1-473: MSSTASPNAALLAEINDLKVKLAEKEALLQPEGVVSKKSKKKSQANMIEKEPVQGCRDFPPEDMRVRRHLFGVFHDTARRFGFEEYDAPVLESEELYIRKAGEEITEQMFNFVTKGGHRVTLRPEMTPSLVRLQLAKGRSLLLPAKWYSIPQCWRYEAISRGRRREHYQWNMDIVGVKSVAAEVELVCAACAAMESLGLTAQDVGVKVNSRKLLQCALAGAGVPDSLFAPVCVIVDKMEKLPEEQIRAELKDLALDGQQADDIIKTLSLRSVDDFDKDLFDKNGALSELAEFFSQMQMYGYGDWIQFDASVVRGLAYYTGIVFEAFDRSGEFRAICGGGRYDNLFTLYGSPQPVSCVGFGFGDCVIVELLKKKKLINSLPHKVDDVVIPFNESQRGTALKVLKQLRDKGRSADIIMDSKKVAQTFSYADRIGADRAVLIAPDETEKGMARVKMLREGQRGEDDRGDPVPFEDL
UniProt P9WFT3, whole entry: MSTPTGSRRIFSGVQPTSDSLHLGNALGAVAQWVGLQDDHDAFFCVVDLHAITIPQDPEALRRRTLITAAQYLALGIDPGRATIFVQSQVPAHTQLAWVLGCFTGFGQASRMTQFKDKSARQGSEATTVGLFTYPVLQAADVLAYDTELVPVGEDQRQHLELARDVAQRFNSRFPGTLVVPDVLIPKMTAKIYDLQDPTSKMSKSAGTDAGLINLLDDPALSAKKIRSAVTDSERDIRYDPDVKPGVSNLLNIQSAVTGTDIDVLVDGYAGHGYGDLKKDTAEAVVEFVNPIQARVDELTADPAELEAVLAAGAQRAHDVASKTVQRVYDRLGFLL
UniProt P9WNZ1, whole entry: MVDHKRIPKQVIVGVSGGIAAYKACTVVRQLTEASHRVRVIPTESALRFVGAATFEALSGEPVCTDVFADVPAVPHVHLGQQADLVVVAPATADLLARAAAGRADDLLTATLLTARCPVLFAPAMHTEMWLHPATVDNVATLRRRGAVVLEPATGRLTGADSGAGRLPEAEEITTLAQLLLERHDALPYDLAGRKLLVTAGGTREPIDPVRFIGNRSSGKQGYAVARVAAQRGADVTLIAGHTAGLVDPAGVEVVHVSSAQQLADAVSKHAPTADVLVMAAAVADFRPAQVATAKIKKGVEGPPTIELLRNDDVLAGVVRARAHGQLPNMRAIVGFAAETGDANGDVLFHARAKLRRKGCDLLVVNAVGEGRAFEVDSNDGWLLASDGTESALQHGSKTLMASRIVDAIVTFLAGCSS

A: 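Enzyme assay of histidyl-tRNA synthetase; the read-out is not stated. Target: Histidine-tRNA ligase, Leishmania infantum (UniProt A4I591). Compounds at 30 µM. Direction is inferred from retests: higher values go with stronger inhibition. The assay is labelled LdHisRS but filed under L. infantum. About 69,000 compounds were tested under these conditions; 0.6% (about 410) showed 50% or more at least once.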
B: 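Enzyme assay of tryptophanyl-tRNA synthetase; the read-out is not stated. Target: Tryptophan-tRNA ligase, Mycobacterium tuberculosis (UniProt P9WFT3). Tested at 10 µM. Direction is not recorded; retested compounds ran higher, which suggests that high means inhibition. About 65,000 compounds were tested under these conditions; 0.098% (about 64) showed 50% or more at least once.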
C: 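Assay of Toxoplasma gondii numbers, read through their beta-galactosidase reporter with a colour substrate. Tested at 10 µM. The record gives no direction; the compounds picked for IC50 retests had high values, so higher reads as fewer parasites. Of about 67,000 compounds tested this way, about 260 (0.38%) reached 50% or more in at least one test.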
D: 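Enzyme assay of CoaBC with a phosphate dye (Biomol Green) read at 650 nm. Target: Coenzyme A biosynthesis protein CoaBC, Mycobacterium tuberculosis (UniProt P9WNZ1). Tested at 30 µM. Direction is inferred from only a few compounds that gave an IC50; most scored high, so higher reads as stronger inhibition. Most strong results did not repeat in a second test. Size under these conditions: about 67,000 compounds, about 40 of them at 50% or above in at least one test.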

Values are the deposited “Percent Effect”, in %. The controls that fix the scale are not given in the record; negative values are as filed. The compounds are a random part of those screened. A dash means the value is not listed here; it may have been measured.

| # | structure | A | B | C | D |
|---|---|---|---|---|---|
| 1 | `CC[C@@]1(O)CCN(C(=O)c2ccc(SC)cc2)C[C@H]1O` | 16.35 | -1.706 | -0.2326 | 0 |
| 2 | `CCN1CC2(CC1=O)CN(Cc1ccncc1)CCN(C(=O)C(C)C)C2` (configuration not stated) | 17.95 | 0.6916 | - | 3.258 |
| 3 | `CCc1nc(C2CCCN2C(=O)c2ccc3c(c2)COC3)no1` (configuration not stated) | 12.07 | -5.066 | -5.5 | 2.35 |
| 4 | `O=C(NCc1nc(C2CCCCC2)no1)C1CC(=O)N(C2CC2)C1` (configuration not stated) | 9.836 | -0.9449 | 5.375 | -2.046 |
| 5 | `CC(=O)NC[C@@H]1C=C(C)[C@H](CC(=O)NCCN(C)C)C[C@H]1C(C)C` | 25 | 16.64 | 2.703 | -1.129 |
| 6 | `COCCN1CCC12CCN(c1ncccn1)C2.O=C(O)C(F)(F)F` (configuration not stated) | - | - | -4.402 | - |
| 7 | `Fc1ccc(OCCCN2CC(n3cccn3)C2)cc1` | 14.29 | -3.96 | -31.76 | -12.97 |
| 8 | `[H][C@@]12CN(Cc3c[nH]c4ccccc34)C[C@]1([H])OCC(=O)N2` | - | - | -3.423 | - |
| 9 | `CC(=O)N1CC[C@@H]2CN(Cc3ccncc3)S(=O)(=O)[C@@H]2CC1` | 14.04 | -2.044 | - | -1.903 |
| 10 | `O=C1NCCCCC1NC(=O)C1(c2ccc3c(c2)OCCO3)CCCC1` (configuration not stated) | 0 | -0.5387 | -7.86 | -1.333 |
| 11 | `CCCC(=O)N1CCC(c2cc3cccnc3c(O)n2)CC1` | 5.674 | -2.108 | 14.86 | 10.72 |
| 12 | `CC(=O)N1CCC(C(=O)N2CCCC(Cc3cccc(C)n3)C2)CC1` (configuration not stated) | -20 | 1.101 | -7.864 | 8.029 |
| 13 | `Cc1cc(CN2CCCCC2Cn2cncn2)no1` (configuration not stated) | 16.51 | -1.248 | -6.55 | 2.046 |
| 14 | `OCCN1CCC2(CC1)CC(NCc1ccccn1)c1ccccc1O2` (configuration not stated) | -2.564 | -0.9682 | - | 0.2506 |
| 15 | `CC(C)Oc1cccc(CNC(Cc2ccsc2)c2nccs2)c1.Cl` (configuration not stated) | - | - | 25.06 | - |
| 16 | `CC(CC#N)N(C)Cc1ccc(F)cc1F` (configuration not stated) | 3.419 | -6.924 | 7.664 | -3.846 |
| 17 | `CN1CCC2(CCN(c3ncc(F)cn3)CC2)C1=O` | 8.547 | 3.779 | - | - |
| 18 | `CN1CCCC1CNC(=O)CCCOc1ccc(Cl)cc1` (configuration not stated) | 14.29 | -0.4394 | 6.935 | 3.676 |
| 19 | `Cc1csc(C2(NCc3ccc(OCC(F)F)cc3)CCCC2)n1` | 7.895 | -1.349 | -3.69 | 1.768 |
| 20 | `Cc1cc(C)n(C2CN(CC(=O)N(C)Cc3ccc(C)o3)C2)n1` | 17.14 | 3.284 | 1.659 | 0.4049 |
| 21 | `O=C(O)C(F)(F)F.O=C(O)C(F)(F)F.[H][C@@]12CN(CC3CCOC3)C[C@]1([H])OCCN2CC(=O)NC` (some centres not stated) | - | - | 12.61 | - |
| 22 | `COc1nc2ccn(CCc3cnccn3)c(=O)c2cc1C#N` | 0 | -6.381 | 24.78 | 5.4 |
| 23 | `[H][C@]12CC[C@]([H])(CN(C(=O)N(C)C)C1)N(Cc1ccc3nsnc3c1)C2` | - | - | -4.187 | - |
| 24 | `CCc1ccc(C(=O)NCc2cccc(S(=O)(=O)NC)c2)o1` | 11.97 | -2.783 | 11.32 | -12.33 |
| 25 | `O=C(NCCc1cccs1)NC1CCN(c2ncccn2)CC1` | 15.96 | -0.2945 | -6.364 | 6.947 |
| 26 | `O=C([C@@H]1CCO[C@@H]2CCN(CCc3ccccc3)C[C@@H]21)N1CCCC1` | 17.81 | 13.06 | - | 0.6588 |
| 27 | `COCc1ccc(C(=O)N2CCCN(Cc3ccc(F)cc3)CC2)s1` | 13.56 | 0.07886 | -6.575 | 3.388 |
| 28 | `c1cncc(CO[C@H]2CC[C@H]3[C@@H]2OCCN3C2CCOCC2)c1` | 5.714 | 1.234 | - | 5.806 |
| 29 | `CS(=O)(=O)NCc1ncn2c1CN(C(=O)C1CCCCC1)CCC2` | -8.257 | -4.813 | -2.765 | 3.448 |
| 30 | `CN(c1ncnc2c1CCC2)C1CCCN(c2cccnn2)C1` (configuration not stated) | 25.81 | -3.681 | 13.57 | 3.178 |
| 31 | `O=C(O)C(F)(F)F.O=C(O)C(F)(F)F.[H][C@@]12OCCN(Cc3ccoc3)[C@@]1([H])CC[C@H]2OCCN1CCCC1` | - | - | -4.965 | - |
| 32 | `[H][C@@]12C[C@@H](c3nc(C)cs3)O[C@]1([H])CN(C(=O)c1cc(C)nn1CC)C2` | - | - | -7.731 | - |
| 33 | `CCC(=O)N1CCN(CCn2cccn2)c2ncccc2C1.O=C(O)C(F)(F)F` | - | - | -22.07 | - |
| 34 | `O=C(Nc1nc(-c2ccccc2)ns1)N1CCC(CO)CC1` | 20.51 | -0.4575 | -7.168 | 3.053 |
| 35 | `Cc1nc(CN2C[C@@H]3CN(C(=O)C4CC4)C[C@@H]3C2=O)cs1` | 13.53 | 2.703 | - | 0.5141 |
| 36 | `O=C(NCc1ccncc1)N(Cc1ccccc1F)C1CC1` | 16.5 | 6.217 | -2.753 | 14.29 |
| 37 | `CCn1nc(C)c(S(=O)(=O)Nc2cccc(C(=O)O)c2C)c1C` | 0 | -6.134 | 14.62 | -3.736 |

The first 3 entries again:

* CC[C@@]1(O)CCN(C(=O)c2ccc(SC)cc2)C[C@H]1O | A: 16.35%; B: -1.706%; C: -0.2326%; D: 0%
* CCN1CC2(CC1=O)CN(Cc1ccncc1)CCN(C(=O)C(C)C)C2 (configuration not stated) | A: 17.95%; B: 0.6916%; D: 3.258%
* CCc1nc(C2CCCN2C(=O)c2ccc3c(c2)COC3)no1 (configuration not stated) | A: 12.07%; B: -5.066%; C: -5.5%; D: 2.35%